No constants are given. Whether binding was seen depends on the method and setting. Some results given as binding are weak or reduced against the parent protein; the word gives no strength.
T1: RNA binding motif protein 45 (Homo sapiens (Human)) (UniProt Q8IUH3)
T1 sequence: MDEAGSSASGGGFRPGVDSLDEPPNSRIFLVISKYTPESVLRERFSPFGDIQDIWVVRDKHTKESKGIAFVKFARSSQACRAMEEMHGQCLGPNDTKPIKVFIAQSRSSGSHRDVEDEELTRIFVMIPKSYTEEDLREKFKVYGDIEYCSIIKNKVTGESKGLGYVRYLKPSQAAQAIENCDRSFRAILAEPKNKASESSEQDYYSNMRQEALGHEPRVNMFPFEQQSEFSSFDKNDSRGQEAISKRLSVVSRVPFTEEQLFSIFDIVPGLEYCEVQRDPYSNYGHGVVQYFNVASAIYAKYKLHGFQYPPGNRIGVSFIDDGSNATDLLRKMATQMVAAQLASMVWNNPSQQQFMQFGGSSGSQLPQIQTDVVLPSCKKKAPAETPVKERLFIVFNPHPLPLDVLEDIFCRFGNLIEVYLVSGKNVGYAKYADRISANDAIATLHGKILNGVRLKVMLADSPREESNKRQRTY

The chains behind the UniProt entries cited, without tags or fusion partners. Where a name states a change or a piece, a line headed by the entry shows the natural chain unless it says otherwise.
UniProt Q00613: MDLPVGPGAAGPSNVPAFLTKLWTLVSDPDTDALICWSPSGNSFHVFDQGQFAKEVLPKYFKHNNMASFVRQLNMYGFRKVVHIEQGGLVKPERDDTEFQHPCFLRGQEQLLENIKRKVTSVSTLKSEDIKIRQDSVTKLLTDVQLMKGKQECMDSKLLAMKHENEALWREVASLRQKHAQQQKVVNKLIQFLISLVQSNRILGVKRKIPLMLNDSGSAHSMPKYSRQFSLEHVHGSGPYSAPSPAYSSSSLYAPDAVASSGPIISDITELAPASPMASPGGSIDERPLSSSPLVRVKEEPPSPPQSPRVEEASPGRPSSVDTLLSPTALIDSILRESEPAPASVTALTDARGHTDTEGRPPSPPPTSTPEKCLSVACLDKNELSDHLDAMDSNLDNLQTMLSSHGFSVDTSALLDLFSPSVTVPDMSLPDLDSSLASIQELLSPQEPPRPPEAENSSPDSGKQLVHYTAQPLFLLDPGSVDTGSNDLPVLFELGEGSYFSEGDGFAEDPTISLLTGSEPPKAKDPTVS


Assays:
[1] = molecular target: T1, RNA binding motif protein 45 (Homo sapiens (Human)); test: inferred from immunocolocalization in stressed HEK293 cells
[2] = molecular target: heat shock transcription factor 1 (Homo sapiens (Human)) (UniProt Q00613); test: quantitative immunocolocalization analysis in HEK293 cells (immunofluorescence, digital deconvolution)
[3] = molecular target: heat shock transcription factor 1 (Homo sapiens (Human)) (UniProt Q00613); test: quantitative immunocolocalization analysis in HEK293 cells

| binding [1] | binding [2] | binding [3] | Molecule |
| --- | --- | --- | --- |
| binds | – | – | heat shock transcription factor 1 (from UniProt Q00613 1-529) |
| – | binds | binds | RNA binding motif protein 45 (protein) MDEAGSSASGGGFRPGVDSLDEPPNSRIFLVISKYTPESVLRERFSPFGDIQDIWVVRDKHTKESKGIAFVKFARSSQACRAMEEMHGQCLGPNDTKPIKVFIAQSRSSGSHRDVEDEELTRIFVMIPKSYTEEDLREKFKVYGDIEYCSIIKNKVTGESKGLGYVRYLKPSQAAQAIENCDRSFRAILAEPKNKASESSEQDYYSNMRQEALGHEPRVNMFPFEQQSEFSSFDKNDSRGQEAISKRLSVVSRVPFTEEQLFSIFDIVPGLEYCEVQRDPYSNYGHGVVQYFNVASAIYAKYKLHGFQYPPGNRIGVSFIDDGSNATDLLRKMATQMVAAQLASMVWNNPSQQQFMQFGGSSGSQLPQIQTDVVLPSCKKKAPAETPVKERLFIVFNPHPLPLDVLEDIFCRFGNLIEVYLVSGKNVGYAKYADRISANDAIATLHGKILNGVRLKVMLADSPREESNKRQRTY |

Reference: patent US20160238618A1
